Hit rate of the full screen: of about 390,000 compounds, about 610 (0.16%) were called active. This list was built around the results that the source calls inconclusive (neither active nor inactive); the mix of calls is not that of the screen. Calls follow the shape of the dose curve; as a rule, active = well fitted inhibition curve with a large enough effect; inconclusive = small, poorly fitted or top-dose-only effect, or effect the other way, or another doubt; inactive = no such curve, though single readings can be large or run the other way. Potencies of inconclusive entries are doubtful fits and often do not repeat.
Test: Nrf2 qHTS screen for inhibitors: counterscreen for cytotoxicity
Conditions: A549 ARE-Fluc cells, CellTiter-Fluor viability, 18-24 h; activity change, negative = cytotoxicity: at 46 µM (top of the series)
How it was run: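 A549 ARE_Fluc cells in 5% FBS OPTI-MEM were exposed to compounds in concentration-response for 18-24 h at 37 deg C. Viability was read by CellTiter-Fluor fluorescence (Ex 405/Em 525) after 30 min, before the luciferase read.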
In the case of `Cc1ccc(CN(Cc2ccco2)C(=O)c2oc3ccc(C)cc3c2C)cc1`, the “activity change, negative = cytotoxicity” value was inactive: 4.14%.
In the case of `COc1ccc(Nc2ccc(S(=O)(=O)N3CCCCC3)cc2[N+](=O)[O-])cc1`, the Potency was inconclusive: 18.4 µM [falling, single point].
For `CC(=Nc1ccccc1)C1=C(O)C(Cc2ccc(O)cc2)NC1=O` (stereo not drawn), the Potency was inconclusive: 13 µM [falling, partial curve].
For `CCCn1c(=NC(C)=O)c(C(=O)OCC)cc2c(=O)n3ccccc3nc21`, the Potency was inconclusive: 5.8 µM [activator, full curve, poor fit].
In the case of `Clc1ccc(Cn2cc3c(n2)-c2cc4ccccc4n2C3)cc1`, the “activity change, negative = cytotoxicity” value was inactive: 0.107%.
With `COc1ccc(CCn2c(=N)c(C(=O)NCCN3CCOCC3)cc3c(=O)n4ccccc4nc32)cc1OC` the Potency was inconclusive: 18.4 µM [falling, partial curve, poor fit].
In the case of `COc1ccc(-c2cc(-c3ccc(OC)cc3)[nH]n2)cc1`, the Potency was inconclusive: 25.9 µM [activator, single point].
For `CCOC(=O)COc1ccc(S(=O)(=O)NC2CC2)cc1`, the “activity change, negative = cytotoxicity” value was inactive: -0.883%.
In the case of `Cc1ccc(/C=C/C(=O)Nc2cccc(S(=O)(=O)N3CCOCC3)c2)o1`, the “activity change, negative = cytotoxicity” value was inactive: 2.75%.
For `COc1ccc(CC(NC(C)=O)C(=O)NC2CCN(C(=O)NCc3ccccc3)CC2)cc1OC` (stereo not drawn), the Potency was inconclusive: 20.6 µM [activator, single point].
In the case of `O=C(Nc1cc(Sc2nc3ccccc3s2)cc([N+](=O)[O-])c1)c1ccccc1`, the “activity change, negative = cytotoxicity” value was inactive: 2.28%.
With `Cc1c(C(=O)NCc2ccc3c(c2)OCO3)oc2ccc(S(=O)(=O)N3CCCC3)cc12` the “activity change, negative = cytotoxicity” value was inactive: -4.9%.
For `CC1CC(C)CN(C/C=C/c2ccccc2[N+](=O)[O-])C1` (stereo not drawn), the Potency was inconclusive: 29.1 µM [activator, partial curve, poor fit].
With `COc1cc2c(=O)n(CCC(=O)NCC3CCCO3)c(=O)n(CC(=O)Nc3ccc(F)cc3)c2cc1OC` (stereo not drawn) the Potency was inconclusive: 18.4 µM [falling, partial curve, poor fit].
With `CC(C)CNS(=O)(=O)c1ccc(S(=O)(=O)NC2CCOC(C)(C)C2)cc1` (stereo not drawn) the Potency was inconclusive: 6.51 µM [activator, partial curve].
For `CCOc1ccccc1NC(=O)COc1ccc(S(=O)(=O)NC2CCCCC2)cc1`, the Potency was inconclusive: 32.6 µM [falling, partial curve, poor fit].
In the case of `COc1ccc(/C=C2/SC(=S)N(Cc3ccccc3)C2=O)cc1O`, the Potency was inconclusive: 16.4 µM [falling, single point].
For `Cc1cccc(C)c1NC(=O)CN(C)C(=O)c1cccc(S(=O)(=O)N2CCN(c3ccc(F)cc3)CC2)c1`, the Potency was inconclusive: 8.2 µM [falling, partial curve, poor fit].
With `Cc1ccc(SCCNC(=S)Nc2ccc(C)c(C)c2)cc1` the Potency was inconclusive: 11.6 µM [falling, partial curve, poor fit].
For `Cc1ccc(CNC(=O)C(=O)NCC(c2cccnc2)N2CCN(c3ccccc3F)CC2)cc1` (stereo not drawn), the Potency was inconclusive: 23.1 µM [falling, single point].
With `CCC(=O)NC(c1ccc([N+](=O)[O-])cc1)c1c(O)ccc2ccccc12` (stereo not drawn) the Potency was inconclusive: 25.9 µM [falling, single point].
In the case of `Cc1ccc(C(=O)Cn2nnc3ccccc32)cc1`, the “activity change, negative = cytotoxicity” value was inactive: -0.504%.
With `CC(C)CCN(C(=O)c1csnn1)C(C(=O)NC1CCCC1)c1ccc(F)cc1` (stereo not drawn) the Potency was active: 18.4 µM.
In the case of `O=C(NCCc1ccc(Cl)cc1)c1ccc2[nH]c(=O)c(=O)[nH]c2c1`, the “activity change, negative = cytotoxicity” value was inactive: 4.3%.
With `COc1ccc(C(c2nnnn2C2CCCC2)N2CCC(C)CC2)c(OC)c1` (stereo not drawn) the “activity change, negative = cytotoxicity” value was inactive: 0.263%.
With `CC(C)c1cc(NCCOCCO)n2c(nc3ccccc32)c1C#N` the “activity change, negative = cytotoxicity” value was inactive: -3.64%.
With `C[C@H]1CN([C@@H](C)CO)C(=O)c2cccc(NC(=O)Nc3ccc(C(F)(F)F)cc3)c2O[C@@H]1CN(C)S(=O)(=O)c1ccccc1` the Potency was inconclusive: 32.6 µM [falling, partial curve, poor fit].
For `CSc1cnc2c(N)nc(N(C)C)nc2n1`, the Potency was inconclusive: 11.6 µM [falling, partial curve].
In the case of `CSc1ccc(CCNC(=O)c2cc3c(-c4ccccc4F)nn(C)c3s2)cc1`, the Potency was inconclusive: 18.4 µM [falling, single point].
For `Nc1nc2ccccc2n1/N=C/c1ccc(-c2ccccc2)o1`, the Potency was inconclusive: 9.2 µM [activator, partial curve].
For `COc1ccc(C(=O)OCC(=O)NCC2CCCCC2)cc1F`, the Potency was inconclusive: 23.1 µM [activator, single point].
For `CC(=O)Nc1ccc(S(=O)(=O)N(CC(=O)Nc2cc(C)on2)Cc2ccc(F)cc2)cc1`, the Potency was inconclusive: 2.06 µM [falling, partial curve].
In the case of `CCN(CC)C(=O)/C=C/c1ccccc1`, the “activity change, negative = cytotoxicity” value was inactive: -1.14%.
For `CCN(CC)c1ccc(/C=N/NC(=O)c2ccco2)c(O)c1`, the Potency was inconclusive: 29.1 µM [falling, single point].
With `C=CCSC(=S)NC1CCS(=O)(=O)C1` (stereo not drawn) the Potency was inconclusive: 29.1 µM [falling, single point].
For `COc1cn(CC(=O)Nc2cc(C)ccc2C)c(CN2CCCCC2)cc1=O`, the “activity change, negative = cytotoxicity” value was inactive: 1.22%.
With `CCOC(=O)c1cc2c(ccn2C)n1CC(=O)N(Cc1ccccc1)c1ccccc1` the Potency was inconclusive: 29.1 µM [falling, single point].
For `CC(=O)Nc1cccc(NC(=O)CSc2cn(CC(=O)N3CCCCCC3)c3ccccc23)c1`, the “activity change, negative = cytotoxicity” value was inactive: -9.32%.
With `CCCCn1nc(NC(=O)c2cccs2)c2cc3cc(OC)ccc3nc21` the “activity change, negative = cytotoxicity” value was inactive: -6.59%.
For `CCN(CC)C(=O)Cn1cc(C(=O)C(=O)N2CCN(c3ccc([N+](=O)[O-])cc3)CC2)c2ccccc21`, the Potency was inconclusive: 23.1 µM [falling, single point].
In the case of `COc1ccc(-c2ccc(=O)n(CC(=O)NCCc3ccccc3)n2)cc1`, the “activity change, negative = cytotoxicity” value was inactive: 13.3%.
In the case of `O=S(=O)(N/N=C1/CC(c2ccccc2)Oc2ccccc21)c1ccc(Br)cc1` (stereo not drawn), the Potency was inconclusive: 9.2 µM [falling, single point].
For `CCN1CCN(Cc2c(O)ccc3c(C)cc(=O)oc23)CC1`, the “activity change, negative = cytotoxicity” value was inactive: -6.64%.
In the case of `O=C(Oc1csc(=S)n1C(=O)c1ccccc1)c1ccccc1`, the Potency was inconclusive: 14.6 µM [falling, partial curve, poor fit].
In the case of `COc1ccc(C2=CC(c3ccc(Cl)cc3)n3cnnc3N2)cc1OC` (stereo not drawn), the Potency was inconclusive: 20.6 µM [activator, single point].
For `Cc1ccc(Nc2nc(NCCO)c3ccccc3n2)cc1C`, the “activity change, negative = cytotoxicity” value was inactive: -2.33%.
With `NC(=S)NNc1cccc2cccnc12` the Potency was inconclusive: 18.4 µM [falling, partial curve, poor fit].
With `COc1ccc(NC(=O)c2c(NCc3cccc(F)c3)sc3c2CCCC3)c(OC)c1` the Potency was inconclusive: 18.4 µM [falling, single point].
In the case of `O=C(Cc1csc(NC(=O)Nc2ccc(Cl)cc2)n1)NC1CCCC1`, the Potency was inconclusive: 29.1 µM [falling, partial curve, poor fit].
In the case of `Cc1cc(-c2ccccc2)nc(N(C)NC(=O)c2c(F)cccc2F)c1S(C)(=O)=O`, the “activity change, negative = cytotoxicity” value was inactive: 1.81%.
For `O=C(O/N=C1\CCS(=O)(=O)c2sccc21)c1c(F)cccc1F`, the “activity change, negative = cytotoxicity” value was inactive: -0.0209%.
For `CCCc1cc(=O)[nH]c(SCC(=O)c2c(N)n(C3CC3)c(=O)[nH]c2=O)n1`, the “activity change, negative = cytotoxicity” value was inactive: -2.96%.
In the case of `CCOC(=O)C1=C(CN(CC)Cc2ccccc2)NC(=O)NC1c1ccc(OC(C)C)cc1` (stereo not drawn), the Potency was inconclusive: 29.1 µM [falling, single point].
In the case of `COc1ccccc1CNC(=O)c1ccc(N2CCCC2)c(NC(=O)NCc2ccc(F)cc2)c1`, the “activity change, negative = cytotoxicity” value was inactive: 1.06%.
In the case of `CSc1ccc(S(=O)(=O)Nc2ccc3c4c(cccc24)CC3)cc1`, the Potency was inconclusive: 5.8 µM [falling, full curve, poor fit].
With `COc1ccc(C(=O)Cn2c(Br)nc3c2c(=O)n(C)c(=O)n3C)cc1OC` the Potency was inconclusive: 5.17 µM [falling, single point].
In the case of `Cc1ccc2c(c1)c1c(n2CC(O)CN2C(=O)CNC2=O)C(=O)CCC1` (stereo not drawn), the Potency was inconclusive: 25.9 µM [falling, partial curve, poor fit].
With `COc1cc(N2CCCC2)ccc1[N+](=O)[O-]` the Potency was inconclusive: 18.4 µM [falling, partial curve, poor fit].
With `CCOC(=O)C1=C(C)N=C2c3ccccc3C(=O)C2C1c1ccc(Cl)cc1` (stereo not drawn) the Potency was active: 16.4 µM.
In the case of `CN1CCN(c2cc(N3CCc4ccccc4C3)c(F)cc2[N+](=O)[O-])CC1`, the “activity change, negative = cytotoxicity” value was inactive: -4.81%.
In the case of `O=C(NNc1c2ccccc2nc2ccccc12)c1ccc(O)cc1`, the Potency was inconclusive: 20.6 µM [falling, partial curve, poor fit].
For `CCOc1ccc(S(=O)(=O)NCc2ccccn2)cc1NC(=O)c1ccccc1`, the Potency was inconclusive: 8.2 µM [falling, partial curve, poor fit].
For `Cc1ccc(-n2cc(CN3CCC(O)(c4ccccn4)CC3)c(-c3ccc(F)cc3)n2)cc1`, the Potency was inconclusive: 25.9 µM [falling, single point].
In the case of `COc1ccc(CCNC(=O)c2cc3c(=O)n4ccccc4nc3n(CCCN3CCOCC3)c2=N)cc1`, the Potency was inconclusive: 23.1 µM [falling, partial curve].
With `CC1=CC(C)[C@H](/C=N/n2c(=O)[nH]c3c([nH]c4ccc(Br)cc43)c2=O)C(C)C1` (stereo partly drawn) the Potency was inconclusive: 23.1 µM [falling, single point].
In the case of `Cc1ccccc1NC(=S)N/N=C1\CC(C)(C)Oc2ccc(O)cc21`, the “activity change, negative = cytotoxicity” value was inactive: 8.93%.
For `CSCC[C@H](NC(=O)c1cccc(S(=O)(=O)N2CCCCCC2)c1)c1nc2ccccc2[nH]1`, the Potency was inconclusive: 18.4 µM [falling, partial curve, poor fit].
For `CC(=O)Nc1ccc(-c2nnc(SCC(=O)c3ccc([N+](=O)[O-])cc3)o2)cc1`, the “activity change, negative = cytotoxicity” value was inactive: 0.718%.

Reference: PubChem BioAssay AID504648 (National Center for Advancing Translational Sciences (NCATS), 2011)
% is scaled to controls: 0 for no effect and ±100 for the full control effect; potency is read from the fitted curve at half-maximal effect.
